Reference: patent US20220193251A1 (Ludwig-Maximilians-Universitaet Muenchen, priority 2020, published 2022)

Test: general procedure: solution-phase peptide synthesis; PyBOP/DIPEA; HOBt/DIPEA with PNP carbonate; OSu esters
Details: conjugation step, TFA salt

## Boc-Glu-(VC-PAB-MMAE)2
  conjugation yield: 55.8%
